According to US6482802B1 (Endowment for Research in Human Biology, Inc., priority 1998, dated 2002):

Tested on: nuclear translocation of 125I-angiogenin in HUVE cells
Test: Nuclear translocation of 125I-angiogenin in HUVE cells
Conditions: Homo sapiens, 0.5 h, read-out: % inhibition of nuclear translocation of angiogenin

Question: For `CN[C@@H]1C[C@H]2O[C@@](C)([C@@H]1OC)n1c3ccccc3c3c4c(c5c6ccccc6n2c5c31)C(=O)NC4` [Staurosporine, staurosporine], which inhibition at 0.1 µM is on record?
Answer: 12%
